The source of these data is article doi:10.1101/2022.11.14.515780.

This assay has as its target T1, GxcM-GFP (Dictyostelium discoideum) (UniProt Q1ZXN6).
T1 sequence: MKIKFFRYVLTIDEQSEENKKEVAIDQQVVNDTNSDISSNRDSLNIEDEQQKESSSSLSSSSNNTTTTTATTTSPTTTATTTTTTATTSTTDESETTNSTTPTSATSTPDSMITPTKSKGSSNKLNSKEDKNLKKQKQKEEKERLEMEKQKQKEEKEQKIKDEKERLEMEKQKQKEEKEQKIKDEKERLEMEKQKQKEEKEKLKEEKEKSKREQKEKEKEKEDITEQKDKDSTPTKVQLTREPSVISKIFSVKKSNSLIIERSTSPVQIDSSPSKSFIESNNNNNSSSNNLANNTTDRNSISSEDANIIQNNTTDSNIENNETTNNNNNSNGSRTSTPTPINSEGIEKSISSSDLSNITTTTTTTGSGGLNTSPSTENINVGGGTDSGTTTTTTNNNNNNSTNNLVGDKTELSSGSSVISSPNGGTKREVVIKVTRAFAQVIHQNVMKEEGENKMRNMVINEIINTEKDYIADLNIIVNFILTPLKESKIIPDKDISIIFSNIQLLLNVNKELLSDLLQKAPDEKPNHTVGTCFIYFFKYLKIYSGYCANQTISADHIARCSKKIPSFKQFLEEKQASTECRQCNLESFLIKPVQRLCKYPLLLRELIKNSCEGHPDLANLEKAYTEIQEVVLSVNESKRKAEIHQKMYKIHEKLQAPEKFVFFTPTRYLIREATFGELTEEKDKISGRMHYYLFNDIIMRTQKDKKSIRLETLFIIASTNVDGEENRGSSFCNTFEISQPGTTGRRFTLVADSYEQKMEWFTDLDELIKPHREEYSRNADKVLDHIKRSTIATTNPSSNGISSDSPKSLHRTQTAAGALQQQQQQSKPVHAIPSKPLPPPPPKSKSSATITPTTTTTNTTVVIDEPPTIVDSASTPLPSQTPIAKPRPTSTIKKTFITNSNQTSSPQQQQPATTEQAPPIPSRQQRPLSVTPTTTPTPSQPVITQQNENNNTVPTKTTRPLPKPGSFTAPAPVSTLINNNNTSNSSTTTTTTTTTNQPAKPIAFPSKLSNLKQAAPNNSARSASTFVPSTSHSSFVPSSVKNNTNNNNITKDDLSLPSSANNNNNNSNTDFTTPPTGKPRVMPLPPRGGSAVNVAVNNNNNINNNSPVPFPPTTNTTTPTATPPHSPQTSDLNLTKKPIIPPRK
The experiment in a line: affinity purification with mass spectrometry.

These are yes or no findings as the source states them, for the method shown. In cells and extracts the contact can be indirect. Here binding means that the protein was enriched with, or labelled near, the bait; the list need not be complete. Sequences can lack the tags named with a protein.

As for “Fbp17 (SH3 domain-containing protein, gene ID DDB_G0271812) (from UniProt Q55AN3)”, the binding entry is recorded as “binds”.
